For four molecules, binding results are on record in article PMC12598007.

The chains behind the UniProt entries cited, without tags or fusion partners. Residues count along the entry.
UniProt Q91VN0, residues 31-1614: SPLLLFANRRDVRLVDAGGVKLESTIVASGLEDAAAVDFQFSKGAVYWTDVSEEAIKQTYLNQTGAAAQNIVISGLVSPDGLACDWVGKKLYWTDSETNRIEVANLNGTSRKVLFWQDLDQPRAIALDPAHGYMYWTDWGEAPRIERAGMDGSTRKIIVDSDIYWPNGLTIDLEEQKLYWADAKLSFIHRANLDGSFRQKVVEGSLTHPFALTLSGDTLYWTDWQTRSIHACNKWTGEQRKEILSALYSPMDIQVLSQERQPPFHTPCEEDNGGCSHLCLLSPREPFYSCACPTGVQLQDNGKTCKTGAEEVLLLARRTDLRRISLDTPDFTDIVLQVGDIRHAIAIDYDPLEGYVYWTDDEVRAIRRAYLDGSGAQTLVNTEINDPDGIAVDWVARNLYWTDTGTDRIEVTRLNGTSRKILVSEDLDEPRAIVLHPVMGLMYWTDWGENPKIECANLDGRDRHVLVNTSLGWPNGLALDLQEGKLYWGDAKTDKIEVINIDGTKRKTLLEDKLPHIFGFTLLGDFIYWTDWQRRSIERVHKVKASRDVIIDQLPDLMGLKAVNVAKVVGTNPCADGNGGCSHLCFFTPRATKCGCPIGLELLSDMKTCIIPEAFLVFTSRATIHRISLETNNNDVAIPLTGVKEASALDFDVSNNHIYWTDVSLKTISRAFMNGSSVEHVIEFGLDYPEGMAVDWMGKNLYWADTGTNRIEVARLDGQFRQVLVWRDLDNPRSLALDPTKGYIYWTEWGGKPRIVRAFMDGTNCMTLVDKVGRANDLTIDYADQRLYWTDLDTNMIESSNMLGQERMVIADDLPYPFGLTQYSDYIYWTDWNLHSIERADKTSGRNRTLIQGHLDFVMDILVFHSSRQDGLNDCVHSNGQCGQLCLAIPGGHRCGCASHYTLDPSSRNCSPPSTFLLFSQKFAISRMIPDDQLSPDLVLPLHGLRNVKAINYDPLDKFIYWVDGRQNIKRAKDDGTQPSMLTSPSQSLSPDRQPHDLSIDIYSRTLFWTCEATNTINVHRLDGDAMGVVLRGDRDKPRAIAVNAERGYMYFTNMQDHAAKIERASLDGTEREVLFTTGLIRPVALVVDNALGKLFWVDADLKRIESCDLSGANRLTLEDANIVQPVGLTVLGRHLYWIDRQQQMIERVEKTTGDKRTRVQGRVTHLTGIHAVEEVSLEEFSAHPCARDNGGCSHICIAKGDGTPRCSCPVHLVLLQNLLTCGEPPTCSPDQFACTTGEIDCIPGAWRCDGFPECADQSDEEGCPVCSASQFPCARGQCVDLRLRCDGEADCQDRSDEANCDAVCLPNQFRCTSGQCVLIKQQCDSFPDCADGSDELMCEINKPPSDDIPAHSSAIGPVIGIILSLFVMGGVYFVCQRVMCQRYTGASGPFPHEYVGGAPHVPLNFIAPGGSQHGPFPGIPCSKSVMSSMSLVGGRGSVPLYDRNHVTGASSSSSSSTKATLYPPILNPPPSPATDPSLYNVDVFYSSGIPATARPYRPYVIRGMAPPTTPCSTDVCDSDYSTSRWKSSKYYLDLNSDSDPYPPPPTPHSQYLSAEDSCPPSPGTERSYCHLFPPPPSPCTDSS

Read-outs that look alike come from different tables or passages of the source. These are yes or no findings as the source states them, for the method shown. In cells and extracts the contact can be indirect. A yes stands for co-enrichment or nearness to the bait. Other partners may have been found.

For test [1], the target named is T1, recombinant human AOC1 protein (diamine oxidase, DAO) (human) (UniProt P19801).
T1 sequence: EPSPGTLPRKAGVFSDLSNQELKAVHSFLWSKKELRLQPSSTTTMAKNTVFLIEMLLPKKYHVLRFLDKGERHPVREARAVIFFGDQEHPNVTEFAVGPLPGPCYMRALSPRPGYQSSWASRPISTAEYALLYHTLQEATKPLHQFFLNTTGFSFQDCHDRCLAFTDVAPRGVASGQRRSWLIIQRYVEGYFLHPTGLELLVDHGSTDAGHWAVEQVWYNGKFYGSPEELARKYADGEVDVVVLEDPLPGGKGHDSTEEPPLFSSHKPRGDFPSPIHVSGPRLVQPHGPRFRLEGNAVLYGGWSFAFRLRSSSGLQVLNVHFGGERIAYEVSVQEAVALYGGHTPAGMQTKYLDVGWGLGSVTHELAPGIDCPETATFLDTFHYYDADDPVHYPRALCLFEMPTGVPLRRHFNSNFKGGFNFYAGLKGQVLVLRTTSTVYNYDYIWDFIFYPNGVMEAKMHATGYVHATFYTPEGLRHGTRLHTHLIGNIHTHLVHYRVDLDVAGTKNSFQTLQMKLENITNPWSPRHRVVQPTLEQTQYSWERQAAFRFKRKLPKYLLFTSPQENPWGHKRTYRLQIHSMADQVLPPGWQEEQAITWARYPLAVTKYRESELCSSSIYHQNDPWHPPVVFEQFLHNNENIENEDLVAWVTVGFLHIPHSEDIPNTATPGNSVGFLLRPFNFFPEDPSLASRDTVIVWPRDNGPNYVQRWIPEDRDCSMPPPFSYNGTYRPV
As to the kind of experiment: affinity purification with mass spectrometry; C2C12 myoblasts treated with 200 pg/mL recombinant human AOC1 for 24 h, lysed in RIPA buffer with protease inhibitors; total protein incubated with AOC1-specific antibodies overnight at 4 °C, protein G agarose beads; eluate digested with trypsin, LC-MS/MS; only the target purified.

The target of test [2] is T1, recombinant human AOC1 protein (diamine oxidase, DAO) (human). Described as above. This is another data set of the same source.

Regarding “LRP5 (from UniProt Q91VN0 31-1614) (receptor)”, the binding entry in test [1] was “binds”.

B1: Fbln1 (Fibulin-1) (protein, UniProt Q08879 30-705)
chain: DISMEACCTDGNQMANQHRDCSLPYTSESKECRMVQEQCCHNQLEELHCATGINLASEPEGCASLHSYNSSLETIFIKRCCHCCMLGKASLARDQTCEPIVMISYQCGLVFRACCVKARENSDFVQGNGADLQDPAKIPDEEDQEDPYLNDRCRGGGPCKQQCRDTGDEVICSCFVGYQLQSDGVSCEDINECITGSHNCRLGESCINTVGSFRCQRDSSCGTGYELTEDNNCKDIDECETGIHNCPPDFICQNTLGSFRCRPKLQCKSGFIQDALGNCIDINECLSISAPCPVGQTCINTEGSYTCQKNVPNCGRGYHLNEEGTRCVDVDECSPPAEPCGKGHHCLNSPGSFRCECKAGFYFDGISRTCVDINECQRYPGRLCGHKCENTPGSFHCSCSAGFRLSVDGRSCEDVNECLNSPCSQECANVYGSYQCYCRRGYQLSDVDGVTCEDIDECALPTGGHICSYRCINIPGSFQCSCPSSGYRLAPNGRNCQDIDECVTGIHNCSINETCFNIQGSFRCLSFECPENYRRSADTFRQEKTDTVRCIKSCRPNDEACVRDPVHTVSHTVISLPTFREFTRPEEIIFLRAVTPLYPANQADIIFDITEGNLRDSFDIIKRYEDGMTVGVVRQVRPIVGPFYAVLKLEMNYVLGGVVSHRNVVNVHIFVSEYWF
B1: the binding entry in test [2] was “binds”.

B2: PTK7 (receptor, UniProt Q8BKG3 23-1062)
chain: AIVFIKEPSSQDALQGRRALLRCEVEAPDPVHVYWLLNGVPVQDTERRFAQGSSLSFAAVDRLQDSGAFQCVARDNVTGEEVRSTNASFNIKWIEAGPVVLKHPASEAEIQPQTQVTLRCHIDGHPRPTYQWFRDGTPLSDDQSTHTVSSRERNLTLRPASPEHSGLYSCCAHNAFGQACSSQNFTLSVADESFARVVLAPQDVVVARNEEAMFHCQFSAQPPPSLQWVFEDETPITNRSRPPHLRRAVVFANGSLLLTQVRPRNAGVYRCIGQGQRGPPIVLEATLHLAEIEDMLPFEPRVFIAGDEERVTCPAPQGLPTPSVWWEHAGVPLPAHGRVHQKGLELVFVTIAESDTGVYTCHASNLAGQRRQDVNITVATVPTWLRKPQDSQLEEGKPGYLHCLTQATPKPTVIWYRNQMLISEDSRFEVSKNGTLRINSVEVYDGTLYRCVSSTPAGSIEAQARVQVLEKLKFTPPPQPQQCMEFDKEATVPCSATGREKPTVKWVRADGSSLPEWVTDNAGTLHFARVTRDDAGNYTCIASNEPQGQIRAHVQLTVAVFITFKVEPERTTVYQGHTALLRCEAQGDPKPLIQWKGKDRILDPTKLGPRMHIFQNGSLVIHDVAPEDSGSYTCIAGNSCNIRHTEAPLLVVDKPVMEDSEGPGSPPPYKMIQTIGLSVGAAVAYIIAVLGLMFYCKKRCKAKRLQKQPEGEEPEMECLNGGPLQNGQPSAEIQEEVALTSLGSGPPATNKRHSAGDRMHFPRASLQPITTLGKSEFGEVFLAKAQGVEEGATETLVLVKSLQSRDEQQQLDFRREVEMFGKLNHANVVRLLGLCREAEPHYMVLEYVDLGDLKQFLRISKNKDEKLKSQPLSTKQKVALCSQVALGMEHLSNNRFVHKDLAARNCLISAQRQVKVSALGLSKDVYNSEYYHFRQAWVPLRWMSPEAVLEGDFSTKSDVWAFGVLMWEVFTHGEMPHGGQADDEVLADLQAGKARLPQPEGCPSKLYRLMQRCWAPNPKDRPSFSEIASTLGDSPADSKQ
Regarding B2, the binding entry in test [2] is listed as “binds”.

B3: Fbln2 (protein, UniProt P37889 27-1221)
chain: VPWQDCTGAECPLLENCIEEALEPGACCATCVQQGCACEGYQYYDCVQGGFVDGRVPAGQSYFVDFGSTECSCPPGGGKISCQFMLCPELPPNCIEAVVVADSCPQCGQVGCVHSGRKYAAGHTVHLSSCRACHCPDAGGELICYQLPGCHGNFSDAEEGDSERQYEDPYSYDQEVAEAEATTAIVNEVQAGAEGPPAALGGGNLPPSSIRVTPWPVALPRPTAAAALGPPAPVQAKARRVTLDTEEDEEEEEEETLVTEPPTAGSPGRLDSLPTRSPARPGFPVQEKEAEAKAGPEENLIPDAQVTPRSVMQEGAAPLPRSGLAALSPSLATDSSSEDPVKPSDHPTLSTLPPDRAQVSPSPETPEEIPQHPQLLPRFRAEEDIDPNSVHSVPRGDLDGSTKDLIETCCAAGQQWAIDNDECQEIPENGAQSDICRIAQRQCCISYLKEKSCVAGVMGAKEGETCGAEDNDTCGVSLYKQCCDCCGLGLRVRAEGQSCESNPNLGYPCNHVMLSCCEGEEPLIVPEVRRPPEPEAAPRRVSEMEMASREALSLGTEAELPNSLPGDDQDECLMLPGELCQHLCINTVGSYRCACFPGFELQGDGRTCRPDRGAPQLDTARESAPRSESAQVSPNTIPLPVPQPNTCKDNGPCRQVCRVVGDTAMCSCFPGYAIMADGVSCEDQDECLMGTHDCSWKQFCVNTLGSFYCVNHTVLCAEGYILNAHRKCVDINECVTDLHTCTRAEHCVNTPGSFQCYKALTCEPGYVLTDGECTDVDECVTGTHNCQAGFSCQNTKGSFYCQARQRCMDGFLQDPEGNCVDINECTSLLEPCRSGFSCINTVGSYTCQRNPLVCGRGYHANEEGSECVDVNECETGVHRCGEGQLCYNLPGSYRCDCKPGFQRDAFGRTCIDVNECWVSPGRLCQHTCENTPGSYRCSCAAGFLLAADGKHCEDVNECETRRCSQECANIYGSYQCYCRQGYQLAEDGHTCTDIDECAQGAGILCTFRCVNVPGSYQCACPEQGYTMMANGRSCKDLDECALGTHNCSEAETCHNIQGSFRCLRFDCPPNYVRVSETKCERTTCQDITECQTSPARITHYQLNFQTGLLVPAHIFRIGPAPAFAGDTISLTITKGNEEGYFVTRRLNAYTGVVSLQRSVLEPRDFALDVEMKLWRQGSVTTFLAKMYIFFTTFAP
With B3, the binding result in test [2] was “binds”.
